The whole screen tested about 320,000 compounds, of which about 2,100 (0.66%) were called active. The shares of active, inactive and inconclusive entries below differ from those in the screen. The call rests on the fitted dose curve; in most records, active means well fitted inhibition curve with a large enough effect in the signal ratio, with a control signal flat (not every such curve was filed as active); inconclusive means small, poorly fitted or top-dose-only effect, or effect the other way, or a change in a side signal; inactive means flat fitted curve, though single readings scatter; the % refers to the signal ratio. Potencies of inconclusive entries are doubtful fits and often do not repeat.
experiment: qHTS Assay for Lipid Storage Modulators in Drosophila S3 Cells; settings: BODIPY lipid droplet fluorescence, 18-24 h, cells fed with added oleic acid; lipid storage change, negative = inhibition: at 46.1 µM (top of the series) unless noted
Summary of the method: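 Laser-scanning cytometry quantifies lipid droplet accumulation (500–530 nm total intensity; droplet/cell object ratio) in oleic acid-fed (400 uM added) Drosophila S3 cells treated with a concentration series. 20 uM Triacsin C defined 100% inhibition.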
On the % scale 0 is the no-effect control and ±100 the full control effect; potency means the concentration at half of the fitted maximal effect.

Lipid storage change, negative = inhibition, inactive:
O=C(COC(=O)c1ccccn1)Nc1cccc(Cl)c1

Lipid storage change, negative = inhibition, inconclusive:
Cc1ccc(C(=O)N/N=C/c2ccc(-c3cccc(C(F)(F)F)c3)o2)cn1 -0.19%
CCc1nnc(N/N=C/c2ccccc2F)n1N -17.9%
Cc1cc(C)c(S(=O)(=O)N2CCCC(C(=O)N3CCCC3)C2)c(C)c1 (configuration not stated) 229%
O=S(=O)(c1ccc(-c2ccccn2)s1)N1CCC2(CC1)OCCO2 3.22%
COc1ccc(S(=O)(=O)c2ccc(O)cc2)cc1 -21.3%
COCc1c(C(=O)N/N=C\c2cccs2)nnn1-c1nonc1N -5.45%
CCc1ccc(NC(=O)NCCN2CCCCC2)cc1 205%
COc1ccc(/C=N/n2c(-c3cc(C)[nH]n3)n[nH]c2=S)cc1 8.59%
O=C(CSc1nnnn1C1CCCCC1)NCc1cccc(C(=O)O)c1 2.48%
Cc1[nH]n(C(N)=S)c(=O)c1N=Nc1cc(-c2ccc(Br)cc2)[nH]n1 -46%
COc1cc(OC)c(NS(=O)(=O)c2cn(C)cn2)cc1Cl 30.9%
Cc1cc(OC(=O)c2cc([N+](=O)[O-])ccc2Cl)c([N+](=O)[O-])c(=O)[nH]1 55.7%
CC(=O)NS(=O)(=O)c1ccc(NC(=O)c2ccc(-n3nc(C)cc3C)cc2)cc1 3.88%
O=C(O)C1CCCN1c1nc(C(F)(F)F)nc2ccccc12 (configuration not stated) -12.9%
CC(C)NC(=O)NC(=O)COC(=O)c1c2c(nc3ccccc13)CCC2 38.6%
O=C(NC(=S)NC(CO)Cc1ccccc1)c1ccc(F)cc1 (configuration not stated) -20.8%
O=c1c2ccccc2cnn1Cc1n[nH]c(=S)n1-c1ccc(F)c(Cl)c1 2.7%
CC(=O)c1cccc(S(=O)(=O)N2CCCC(c3nc4c(nnn4Cc4cccc(Cl)c4)c(=O)[nH]3)C2)c1 (configuration not stated) -54.8%
CCC(c1c(C)n(C)n(-c2ccccc2)c1=O)c1c(C)n(C)n(-c2ccccc2)c1=O -33.3%
CCCCN(CCCC)C(=O)C[n+]1cccc(/C=N/O)c1 -9.6%
NC(=O)CSc1nnc(Cn2c(=O)sc3ccccc32)n1-c1cccc(Cl)c1 -1.19%
O=C1COc2ccc(C(=O)COC(=O)c3sc4ccccc4c3Cl)cc2N1 2.33%
CCN(CC)CCCC(C)NC1=NCCCCC1 (configuration not stated) 16.2%
Cc1ccc(S(=O)(=O)N2CCCCC2)cc1NC(=O)C1CCC1 -1.13%
COc1cc(/C=N\NC(=O)CN2CCOCC2)ccc1OCC(=O)Nc1ccc(C)c(C)c1 5.23%
COc1ccc(C2=CC(=O)C[C@H](c3ccc(F)cc3)C2)c(OC)c1 17.7%
C=CCC(CC=C)(NC(=O)c1ccccc1C(=O)O)c1ccccc1 7.04%
CCOC(=O)C1CCN(C(=O)COc2ccc(S(=O)(=O)NC(C)C)cc2)CC1 13.9%

10 compounds out of the list, arranged by length of the SMILES, ascending.
Lipid storage change, negative = inhibition, inconclusive:
CCN(CC)CCCC(C)NC1=NCCCCC1 (configuration not stated) 16.2%
CCc1ccc(NC(=O)NCCN2CCCCC2)cc1 205%
CCCCN(CCCC)C(=O)C[n+]1cccc(/C=N/O)c1 -9.6%
O=C(NC(=S)NC(CO)Cc1ccccc1)c1ccc(F)cc1 (configuration not stated) -20.8%
O=C(CSc1nnnn1C1CCCCC1)NCc1cccc(C(=O)O)c1 2.48%
C=CCC(CC=C)(NC(=O)c1ccccc1C(=O)O)c1ccccc1 7.04%
O=C1COc2ccc(C(=O)COC(=O)c3sc4ccccc4c3Cl)cc2N1 2.33%
O=c1c2ccccc2cnn1Cc1n[nH]c(=S)n1-c1ccc(F)c(Cl)c1 2.7%
NC(=O)CSc1nnc(Cn2c(=O)sc3ccccc32)n1-c1cccc(Cl)c1 -1.19%
CCOC(=O)C1CCN(C(=O)COc2ccc(S(=O)(=O)NC(C)C)cc2)CC1 13.9%

Following part:

Potency, inconclusive:
CCN1C(=O)c2ccccc2Sc2ccc(C(=O)NCCC(C)C)cc21 25.9 µM [falling, single point]
CC1=C(C(=O)OC(C)(C)C)C(c2cccc3ccccc23)NC(=O)N1 (configuration not stated) 16.4 µM [activator, partial curve]
Cc1ccc(NC(=O)CN(C)C(=O)CSc2nnc(N)s2)cc1 29.1 µM [falling, single point]
Cc1nn(CC(=O)NCCc2ccccc2)c(=O)c2cc3occc3n12 1.64 µM [activator, partial curve]
COc1ccc(CNC(=O)N2CCN(c3ccccc3OC)CC2)cc1 29.1 µM [activator, single point]
CCOC(=O)[C@H]1[C@H]2COc3ccc(OC)cc3[C@@H]2N2C(=O)c3ccc(F)cc3NC(=O)[C@@]12C 23.1 µM [activator, single point]
CCc1c(C(=O)N/N=C/c2ccc(OCc3ccc(F)cc3)c(OC)c2)nnn1-c1nonc1N 29.1 µM [falling, single point]
COc1ccc(Br)c(C(=O)Nc2cccc(S(=O)(=O)N3CCOCC3)c2)c1 3.26 µM [falling, full curve, poor fit]
COc1ccc(CN(C(=O)c2ccc(C)cc2)c2cccc(N)c2)cc1 6.51 µM [activator, single point]
CC(=O)Nc1ccc(NC(=O)CSc2nc3[nH]ncc3c(=O)n2-c2ccccc2)cc1 29.1 µM [activator, single point]
CC(C)c1ccc(/C=C/C(=O)N2CCOCC2)cc1 29.1 µM [rising, single point]
CC(=O)c1cccc(NC(=O)c2ccc(CN3CCc4ccccc4C3)cc2)c1 6.51 µM [falling, partial curve]
CCN(C(=O)CSc1nnc(-c2ccccc2)o1)c1c(N)n(Cc2ccccc2)c(=O)[nH]c1=O 29.1 µM [falling, single point]
NS(=O)(=O)c1ccc(CCNC(=S)Nc2ccc(S(N)(=O)=O)cc2)cc1 0.13 µM [falling, full curve]
CCC(C)(C)NC(=O)C(c1ccc(F)cc1)N(Cc1ccco1)C(=O)c1cnccn1 (configuration not stated) 18.4 µM [activator, single point]
CCCCCn1c(=O)[nH]c2cc(C(=O)NCCCN3CCCCC3C)ccc2c1=O (configuration not stated) 29.1 µM [falling, single point]
O=C(Cc1nnc(NC(=O)c2ccccc2)s1)N/N=C/c1ccc(O)cc1 29.1 µM [activator, single point]
O=C(NC(=S)Nn1cnnc1)c1ccccc1 29.1 µM [activator, single point]

Source: PubChem BioAssay AID2685 (National Center for Advancing Translational Sciences (NCATS), 2010)
